In PMC4299599, “Quantification of cytosolic interactions identifies Ede1 oligomers as key organizers of endocytosis” (Molecular Systems Biology, 2014) one finds binding data, which are given here for one molecule.

This assay addresses T1, Ste11 (S. cerevisiae) (UniProt P23561).
T1 sequence: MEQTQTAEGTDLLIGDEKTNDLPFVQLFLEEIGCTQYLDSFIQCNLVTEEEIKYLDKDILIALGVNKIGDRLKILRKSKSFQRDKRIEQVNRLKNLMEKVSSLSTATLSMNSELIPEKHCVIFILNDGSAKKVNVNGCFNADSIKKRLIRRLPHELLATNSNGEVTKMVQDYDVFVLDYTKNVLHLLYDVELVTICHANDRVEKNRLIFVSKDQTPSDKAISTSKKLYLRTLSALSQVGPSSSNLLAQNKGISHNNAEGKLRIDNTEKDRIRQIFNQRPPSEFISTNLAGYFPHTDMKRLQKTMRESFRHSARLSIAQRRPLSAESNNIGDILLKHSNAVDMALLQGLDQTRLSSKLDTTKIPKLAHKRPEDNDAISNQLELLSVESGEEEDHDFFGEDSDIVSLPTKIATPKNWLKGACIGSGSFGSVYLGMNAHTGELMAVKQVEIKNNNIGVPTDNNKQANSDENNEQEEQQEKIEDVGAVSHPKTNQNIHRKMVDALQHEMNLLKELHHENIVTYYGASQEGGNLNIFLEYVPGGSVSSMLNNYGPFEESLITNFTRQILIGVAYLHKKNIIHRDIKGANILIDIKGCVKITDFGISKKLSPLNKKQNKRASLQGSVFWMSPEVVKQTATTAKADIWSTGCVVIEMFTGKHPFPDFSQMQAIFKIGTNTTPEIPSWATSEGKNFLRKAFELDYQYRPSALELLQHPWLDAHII
In words: condition: 1000 nM (only Kdeff-values < 1000 nM are shown); fluorescence cross-correlation spectroscopy (FCCS); in the cytoplasm of living yeast cells; first-named protein green (3myeGFP or 1myeGFP; eGFP for Don1), second red (3mCherry); self-interaction in diploid strains with one allele of each colour; apparent or effective KD (Kdeff) from single-cell measurements; only Kdeff values < 1000 nM are shown; values for self-interactions are upper limits.

No constants are given. Whether binding was seen depends on the method and setting.

B1: Don1 (protein, UniProt Q05610 1-365)
chain: MGKKNRKGKENNAAKTSFLKVENIKNTNSGLELPSQDYTNVEEKESSPKTDFPLITKEHVNTKTDSNILDYPTIGDLVSSVEKLCVLKELKIAFPEVDDTLIKAILIASQGVLEPAFNSLLYYSSPEENTDFALPMKPISVEDYSKINVSEILQREIFDDIEDEFSGQGINGSMVISKIESELSSLAEHIGNISTPGSNREVAESTRNVAVAEGHNTILSNEDSILKGKEKGKEEEKEKGEEKGVNSLKGAAVKVVAKSLKNNRIPVTVKRNEPSNNLFDVLNCDESEEEEEQDVETNTSNQERKNQGGNTEVPEAQRDSADRLPAKDDGGYKSAFGTDSCGLFAADAKDEKKQVHPSRQELSFT
Turning to B1, the binding result was “no binding”.
